This assay has as its target ProSys(1-178), recombinant truncated Prosystemin (the Prosystemin sequence devoid of the Sys region) (tomato (Solanum lycopersicum)) (UniProt P27058). The experiment in a line: SEC-MALS; SEC-MALS-QELS on an SEC 2000 column, 0.5 mL/min, PBS 1x, 100 uM PMSF, 1 mM DTT pH 8.0; both purified. A general note: In gel filtration, larger molecules generally elute earlier.

Results are given in words; binding and its absence hold for the method and conditions named.

B1: ProSys(1-178), recombinant truncated Prosystemin (the Prosystemin sequence devoid of the Sys region) (domain or fragment, UniProt P27058 1-178)
chain: MGTPSYDIKNKGDDMQEEPKVKLHHEKGGDEKEKIIEKETPSQDINNKDTISSYVLRDDTQEIPKMEHEEGGYVKEKIVEKETISQYIIKIEGDDDAQEKLKVEYEEEEYEKEKIVEKETPSQDINNKGDDAQEKPKVEHEEGDDKETPSQDIIKMEGEGALEITKVVCEKIIVREDL
In the case of B1, the binding result is listed as “no binding”.

Values taken from article PMC8772835.
